According to publication PMC2787496:
These are yes or no findings as the source states them, for the method shown. For part of these data: Binding seen in cells or lysates may run through a third protein. Some binding calls cover weakened binding; strength is not graded here.

Sequences of proteins named here, by UniProt entry; tags and fusion partners are left off.
UniProt P03372: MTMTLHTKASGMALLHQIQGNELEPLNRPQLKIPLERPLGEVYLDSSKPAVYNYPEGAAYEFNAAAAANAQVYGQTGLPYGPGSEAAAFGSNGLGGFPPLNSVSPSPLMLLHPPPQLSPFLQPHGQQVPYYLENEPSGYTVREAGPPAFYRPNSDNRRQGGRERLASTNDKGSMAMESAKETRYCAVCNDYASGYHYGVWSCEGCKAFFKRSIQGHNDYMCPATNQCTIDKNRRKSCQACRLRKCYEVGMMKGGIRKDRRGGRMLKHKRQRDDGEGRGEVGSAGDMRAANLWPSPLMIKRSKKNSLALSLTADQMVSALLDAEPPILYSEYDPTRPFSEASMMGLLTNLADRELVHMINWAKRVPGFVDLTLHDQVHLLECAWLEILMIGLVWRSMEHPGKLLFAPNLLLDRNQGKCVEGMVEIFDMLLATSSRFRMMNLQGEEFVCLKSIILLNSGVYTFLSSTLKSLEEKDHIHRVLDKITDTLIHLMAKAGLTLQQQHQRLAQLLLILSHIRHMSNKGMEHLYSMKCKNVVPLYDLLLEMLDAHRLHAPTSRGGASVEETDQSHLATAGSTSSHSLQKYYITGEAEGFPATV
UniProt Q13485: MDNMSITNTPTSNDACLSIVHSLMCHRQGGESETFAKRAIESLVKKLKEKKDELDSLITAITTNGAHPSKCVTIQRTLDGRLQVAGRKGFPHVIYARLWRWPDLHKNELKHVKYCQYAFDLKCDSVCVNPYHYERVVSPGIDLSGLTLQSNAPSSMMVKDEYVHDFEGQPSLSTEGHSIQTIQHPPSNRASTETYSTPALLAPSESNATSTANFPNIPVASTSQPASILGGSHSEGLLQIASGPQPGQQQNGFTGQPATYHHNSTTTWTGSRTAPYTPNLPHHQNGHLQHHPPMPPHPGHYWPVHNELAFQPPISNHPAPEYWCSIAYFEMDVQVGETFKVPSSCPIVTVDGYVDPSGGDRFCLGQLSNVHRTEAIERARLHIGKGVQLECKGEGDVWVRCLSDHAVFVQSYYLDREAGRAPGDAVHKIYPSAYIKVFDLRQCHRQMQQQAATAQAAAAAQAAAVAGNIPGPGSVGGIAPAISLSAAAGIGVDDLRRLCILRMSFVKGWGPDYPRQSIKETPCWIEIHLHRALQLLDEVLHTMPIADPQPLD
UniProt P84022: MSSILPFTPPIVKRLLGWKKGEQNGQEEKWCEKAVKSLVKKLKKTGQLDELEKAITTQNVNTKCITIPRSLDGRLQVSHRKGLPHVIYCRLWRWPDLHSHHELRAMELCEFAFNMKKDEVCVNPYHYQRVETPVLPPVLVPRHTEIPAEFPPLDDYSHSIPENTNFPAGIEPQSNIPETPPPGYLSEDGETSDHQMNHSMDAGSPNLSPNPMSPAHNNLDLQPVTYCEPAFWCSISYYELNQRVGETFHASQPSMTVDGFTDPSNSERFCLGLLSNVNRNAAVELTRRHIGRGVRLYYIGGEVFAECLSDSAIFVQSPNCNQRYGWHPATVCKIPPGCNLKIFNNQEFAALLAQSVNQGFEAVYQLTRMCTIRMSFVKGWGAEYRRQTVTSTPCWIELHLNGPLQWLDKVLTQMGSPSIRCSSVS

What was measured:
[1] = target: HA-tagged human ERα (human) (UniProt P03372); test: sequential immunoprecipitation and DNA precipitation (DNAP); COS-1 cells co-transfected with HA-ERα, FLAG-Smad3 and FLAG-Smad4, treated with or without E2 and TGF-β1; anti-HA immunoprecipitation, elution with HA peptide, precipitation with biotinylated wild-type or mutant ERE …; immunoblot with anti-FLAG and anti-HA
[2] = target: Smad4, endogenous in MCF-7 cells (human (endogenous in MCF-7)) (UniProt Q13485); test: co-IP; endogenous proteins of MCF-7 cells treated with vehicle, E2 or E2 + TGF-β1 for 1 hr; lysis in radioimmune precipitation assay buffer; immunoprecipitation with anti-Smad4 or anti-Smad2/3 and protein A/G beads, 3 hr at 4°C; immunoblot for ERα

binding [1]	binding [2]	Substance
binds		FLAG-tagged Smad3 (from UniProt P84022 1-425)
binds		FLAG-tagged Smad4 (from UniProt Q13485 1-552)
	binds	estrogen receptor alpha (ERα), endogenous in MCF-7 cells (from UniProt P03372 1-595)
